This assay deals with Scramb1-A-protA (Drosophila). As to the kind of experiment: affinity purification with mass spectrometry; Scramb1-A-ProtA expressed in the larval fat body, captured from larval extract on rabbit IgG Dynabeads (2 h, 4 °C), eluted by TEV cleavage; LC/ESI-MS/MS; control: Cg-Gal4 larvae.

These are yes or no findings as the source states them, for the method shown. In cells and extracts the contact can be indirect. Here binding means that the protein was enriched with, or labelled near, the bait; the list need not be complete.

B1: Hip14 (enzyme, UniProt Q9VUW9 1-637)
chain: MYQSACQAATTGSCVPGTGQQPDNERQSALIAQQPPTAPVEPDYSGFDIVKATQYGAIARVRELVESGWDVNQPDSETVTLLHWAAINNRRDIIRYFLEKGATVDAVGGELNATPLHWATRQGHLGAVVLLMAAGADPRIRDAEGCSCIHIAAQFAHTALVAYFIAKGVDPDLQDRGGMTALMWAAWKVCALDPVRLLLTLGANPAMVDYTHGNTALHWAILARNATAISTLVLKSKASLDVPNLRGETPLSMLESQTGAIWIGAKVMDRVKEAALTSQQRRSLLSKLRHDKRLRWWSMVACPFTAFYLAGIVFTVNTLYIIKFFLLGCLYSIFHTIGKALFDEHLMALLPLSVYLATKAWFYVTWLMYIDDAVSFTATVCFLISSLLLWVCFLKSWKGDPGIIRPTREQRFKTIIELSERGGIGFEPASFCSGCLVRRPIRSKHCSVCDRCVARFDHHCPWVGNCIGLKNHSYFMGFLWMLLIMCAWMLYGGSKYYVNQCNVRFDDFLGAMRAIGNCDAWVGWVMGNALLHMSWVILLTICQTYQVICLGMTTNERMNRGRYRHFQAKGGHSPFTRGPIQNLVDFLECSCFGLVQPKRVDWMNYYDYDAQTHQTIEKEPLLSVDCPDGMAGDHQYV
Take B1: the binding entry is “binds”.

B2: Flotillin2 (protein, UniProt O61492 1-438)
chain: MGNIHTTGPNEALIVSGGCCGSTKKRTIVGGWAWAWWLVTDVQRLSLNVMTLNPMCENVETSQGVPLTVTGVAQCKIMKSSSYKQTDYHNDEADELLGTASEQFLGKSVKEIKQTILQTLEGHLRAILGTLTVEEVYKDRDQFAALVREVAAPDVGRMGIEILSFTIKDVYDDVQYLASLGKAQTAVVKRDADAGVAEANRDAGIREAECEKSAMDVKYSTDTKIEDNTRMYKLQKANFDQEINTAKAESQLAYELQAAKIRQRIRNEEIQIEVVERRKQIEIESQEVQRKDRELTGTVKLPAEAEAFRLQTLAQAKQCQTIEGARAEAERIRKIGSAEAHAIELVGKAEAERMRMKAHVYKQYGDAAIMNIVLESLPKIAAEVAAPLAKTDEIVLIGGNDNITNDVTRLVAQLPPSINALTGVDLSKVLSKIPGAKA
For B2, the binding result was “binds”.

(Values after article PMC11335299.)
